Source: PubChem BioAssay AID2685 (National Center for Advancing Translational Sciences (NCATS), 2010)
Several values for one entry are separate records, joined by “and”; a condition that tells them apart may be missing. Identical values can stand only once. The list shows a part of the results. Further columns of the screen follow, without active or inactive calls. Most of these compounds were active or inconclusive in the main read-out, so they are no random draw. The note in brackets gives the kind of curve behind each potency; many fits are weak.

Experiment: qHTS Assay for Lipid Storage Modulators in Drosophila S3 Cells;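 as to cell number change: cells counted by Cell Tracker Red CMTPX staining in the red channel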
Conditions: BODIPY lipid droplet fluorescence, 18-24 h; for cell number change: measured here: cell count max response, cells fed with added oleic acid
How it was run: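 Drosophila S3 cells loaded with oleic acid (400 uM, as added) and compounds at several concentrations; lipid droplets imaged by 488-nm laser-scanning cytometry, 500–530 nm intensity and object ratio to cell channel. Percent activity normalized to 20 uM Triacsin C.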

[1] = measured here: cell number channel AC50, cells fed with added oleic acid
[2] = measured here: lipid fluorescence (Fed channel) AC50, cells fed with added oleic acid

SMILES | cell number change | AC50 [1] | AC50 [2]
COCCC(=O)N1CCC(Oc2ccc(C(=O)NCCc3cn[nH]c3)cc2)CC1 | -14.2% | 6.51 µM [falling, single point] | 
CC(C)(C)c1ccc(C(=O)N2CCCN(C(=O)c3ccc(C(C)(C)C)cc3)CC2)cc1 | 75.1% | 16.4 µM [rising, single point] | 18.4 µM [rising, partial curve]
CC1CN(S(=O)(=O)c2cccc(C(=O)N(Cc3nnc(-c4ccccc4Cl)o3)C3CC3)c2)CC(C)O1 (stereo unspecified) | -25.1% |  | 2.91 µM [falling, partial curve, poor fit]
CCC(C)[C@H](NC(=O)NCc1cccc(OC)c1)C(=O)O (stereo partly specified) |  |  | 0.116 µM [falling, full curve]
COC(=O)c1cc(C(=O)Cc2ccccc2)c[nH]1 | -16.1% |  | 
CCCc1nnc(NC(=O)c2cc3ccccc3o2)s1 | -24.4% |  | 
Cc1cc(C)[n+]2n1C(=O)C(c1ccccc1)=C2[O-] | 31% and 54.6% | 6.51 µM [rising, partial curve] and 20.6 µM [rising, single point] | 6.51 µM [rising, partial curve, poor fit] and 29.1 µM [rising, single point]
CCC(C)N(C(=O)CSc1nc(-c2ccccc2)cs1)C1CCS(=O)(=O)C1 (stereo unspecified) |  |  | 6.51 µM [falling, single point]
Cc1ccccc1CS(=O)(=O)c1ncc(Cl)c(C(=O)Nc2ccc(F)cc2)n1 |  | 6.51 µM [falling, single point] | 0.291 µM [falling, full curve]
O=C(O)C1C2C=CC3(O2)C1C(=O)N1c2ccccc2C2OCCC2C13 (stereo unspecified) | 7.08% |  | 1.46 µM [falling, full curve]
NC(=O)c1nn(CC(=O)Nc2ccc3c(c2)OCO3)cc1[N+](=O)[O-] | -4.93% |  | 
N#CC1=C(N)N(c2ccccc2)C(c2cccc([N+](=O)[O-])c2)C1(C#N)C#N (stereo unspecified) | 5.61% |  | 0.366 µM [rising, partial curve, poor fit]
O=C(NCCN1CCOCC1)c1csc2c1CCCC2 | -8.3% |  | 
CC(Sc1ccccc1)C(=O)N1CCN(S(=O)(=O)c2ccccc2)CC1 (stereo unspecified) |  |  | 0.0731 µM [falling, full curve, poor fit]
O=C(c1c(F)cccc1F)N1CCN=C1SCc1ccccc1 |  | 0.731 µM [rising, single point] | 0.651 µM [rising, partial curve, poor fit]
CCCCCCCCSc1nnc(CSc2nc3nc(C)cc(C)n3n2)o1 | 41.6% | 1.84 µM [rising, partial curve] | 18.4 µM [rising, single point]
O=S(=O)(c1ccc(NC(=S)NC2CCCC2)cc1)N1CCCC1 | 13% |  | 
CCCn1c(SCC(=O)N2CCOCC2)nnc1-c1ccncc1 | 11.2% |  | 0.13 µM [falling, partial curve, poor fit]
COc1ccc(CCNC(=O)CCN2C(=O)[C@@H]3Cc4ccccc4CN3C2=O)cc1OC | -12.5% |  | 
O=C(COc1ccc2c(c1)OCO2)Nc1ccccc1C(F)(F)F | 34.7% |  | 23.1 µM [rising, partial curve, poor fit]

SMILES | cell number change | AC50 [1] | AC50 [2]
CCCc1cc(=O)oc2cc(OCC(=O)N3CCOCC3)c(Cl)cc12 | 18.1% | 0.00461 µM [rising, full curve, poor fit] | 6.51 µM [rising, single point]
COc1cc(/C=C(/C#N)c2ccc(F)cc2)ccc1Oc1ccc([N+](=O)[O-])cn1 | -3.65% |  | 
CCCCc1ccc(NC(=O)CSC2=NN3CCCC(=O)N=C3S2)cc1 | -35.2% | 14.6 µM [falling, single point] | 
Cc1cc(N2CCCC2)ccc1/C=C1/C(=O)N(C)C(=S)N1C | -52.8% | 6.51 µM [falling, single point] | 
CN1Cc2ccccc2N(CC(=O)NCc2ccccc2)C1=O | -31.7% |  | 
O=C(NC1CCCCC1)c1c(O)nc2sccn2c1=O | -50% | 0.326 µM [falling, partial curve, poor fit] | 3.66 µM [rising, full curve]
CC1C/C(=C/c2ccncc2)C(=O)/C(=C/c2ccncc2)C1 (stereo unspecified) | -32.3% | 23.1 µM [falling, single point] | 20.6 µM [falling, single point]
Cc1cccc2cc(COC(=O)COc3ccccc3)c(=O)[nH]c12 | -17.4% |  | 
CCOC(=O)CCC(=O)N1CCOCCOCCOCC1 | -3.23% | 4.61 µM [falling, single point] | 
CC(=O)c1ccc(NC(=O)CCNS(=O)(=O)c2ccccc2F)cc1 | 17.1% |  | 
N#Cc1nc(Cc2cccc3ccccc23)oc1N1CCCCC1 | -38.6% | 13 µM [falling, partial curve] | 0.082 µM [falling, full curve, poor fit]
COc1ccc(NC(=O)CN2CCN(CC(=O)Nc3ccc(OC)cc3)CC2)cc1 | -5.03% |  | 32.6 µM [rising, partial curve, poor fit]
COCCNC(=O)c1cc(-c2ccccc2OC)on1 | -4.46% |  | 0.00517 µM [falling, full curve, poor fit]
COC(=O)Cc1[nH]n(-c2nc3ccccc3s2)c(=O)c1C(C)=O | 3.06% |  | 0.00731 µM [falling, full curve, poor fit]
COCCN1CC(CNC(=O)c2cc(COc3ccccc3SC)on2)CC1=O (stereo unspecified) | 0.694% | 2.82 µM [falling, partial curve, poor fit] | 
CC(C)(C)C1CCC(N2CCN(c3ccccc3)CC2)CC1 (stereo unspecified) | -19.4% |  | 29.1 µM [falling, single point]
COc1ccc(C(CNC(=O)c2cccc(S(=O)(=O)Nc3ccc(C)cc3)c2)N2CCCCC2)cc1 (stereo unspecified) | 15% |  | 
CN1CCN(CC(O)COc2ccc(Cl)cc2)CC1 (stereo unspecified) | 5.34% |  | 2.31 µM [falling, single point]
O=S(=O)(c1cccc(-c2nnc(SCc3ccc(Cl)cc3)o2)c1)N1CCCCC1 |  | 6.51 µM [rising, single point] | 6.51 µM [rising, single point]
